{"source": "patent US20090226500A1", "about": "“SUTURES AND ANTI-SCARRING AGENTS” (Angiotech Pharmaceuticals, Inc, priority 2006, published 2009)", "test_system": "human fibroblasts", "assay": "Cell proliferation of fibroblasts", "type": "cell-based", "settings": "Fibroblast, 72 hours, CYQUANT", "procedure": "Fibroblasts at 70-90% confluency are trypsinized, replated at 600 cells/well in media in 96-well plates and allowed to attachment overnight. […] Each drug concentration is tested in triplicate wells. Plates containing fibroblasts and drug substance are incubated at 37° C. for 72 hours.\nTo terminate the assay, the media is removed by gentle aspiration. A 1/400 dilution of CYQUANT 400×GR™ dye indicator (Molecular Probes; Eugene, Oreg.) is added to 1× Cell Lysis buffer, and 200 μL of the mixture is added to the wells of the plate. Plates are incubated at room temperature, protected from light for 3-5 minutes.", "data": [{"compound": "CO[C@@H]1[C@H](N(C)C(=O)c2ccccc2)C[C@H]2O[C@]1(C)n1c3ccccc3c3c4c(c5c6ccccc6n2c5c31)C(=O)NC4", "note": "[Midostaurin, N-Benzoylstaurosporine]", "values": [{"measurement": "IC50", "result": "10 to 100", "unit": "nM"}]}]}
